For assay [1], the target named is CBP-A2-Rpt6 (Rpt6 amino-terminally tagged by a calmodulin binding peptide and two repeats of protein A) (S. cerevisiae) (UniProt Q01939). Nature of the assay: pull-down; calmodulin sepharose affinity purification of CBP-A2-Rpt6 from lysate of WT cells, in the absence of ATP; 25 mM Tris pH 7.4, 200 mM NaCl, 2 mM CaCl2, 0.2% NP-40, 4 °C; elution with EGTA; immunoblotting. (In general: A western blot detects proteins with antibodies after separation by electrophoresis.)

By UniProt entry, the sequences of proteins in these tests, tags left out.
UniProt Q01939: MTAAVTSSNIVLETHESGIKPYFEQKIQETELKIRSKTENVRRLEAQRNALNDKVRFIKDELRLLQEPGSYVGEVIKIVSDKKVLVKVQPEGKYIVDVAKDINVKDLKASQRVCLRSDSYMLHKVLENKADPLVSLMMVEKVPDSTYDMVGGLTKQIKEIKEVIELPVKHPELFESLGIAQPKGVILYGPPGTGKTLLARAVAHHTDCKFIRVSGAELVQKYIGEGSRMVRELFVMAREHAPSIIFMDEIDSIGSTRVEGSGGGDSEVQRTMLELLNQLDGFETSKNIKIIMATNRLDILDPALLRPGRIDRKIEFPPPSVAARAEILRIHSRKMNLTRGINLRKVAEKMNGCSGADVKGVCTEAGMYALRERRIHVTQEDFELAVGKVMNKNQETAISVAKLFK
UniProt P43588: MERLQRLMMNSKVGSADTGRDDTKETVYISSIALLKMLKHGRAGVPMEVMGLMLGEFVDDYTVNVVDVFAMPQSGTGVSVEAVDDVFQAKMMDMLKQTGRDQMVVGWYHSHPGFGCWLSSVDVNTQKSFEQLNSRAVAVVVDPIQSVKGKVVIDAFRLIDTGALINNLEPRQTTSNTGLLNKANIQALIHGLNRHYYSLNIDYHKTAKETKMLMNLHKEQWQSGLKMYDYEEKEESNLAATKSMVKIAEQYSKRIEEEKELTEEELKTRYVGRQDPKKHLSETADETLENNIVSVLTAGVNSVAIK

Assay [2] has the same target. Nature of the assay: pull-down; calmodulin sepharose affinity purification of CBP-A2-Rpt6 from lysate of rpn11-m1 mutant cells, in the absence of ATP; 25 mM Tris pH 7.4, 200 mM NaCl, 2 mM CaCl2, 0.2% NP-40, 4 °C; elution with EGTA; immunoblotting.

These are yes or no findings as the source states them, for the method shown. Binding seen in cells or lysates may run through a third protein. Some binding calls cover weakened binding; strength is not graded here.

Turning to “Rpn11 (wild type) (from UniProt P43588 1-306)”, in assay [1], the binding entry is given as “binds”.

B1: Cdc4 (protein, UniProt P07834 1-779)
chain: MGSFPLAEFPLRDIPVPYSYRVSGGIASSGSVTALVTAAGTHRNSSTAKTVETEDGEEDIDEYQRKRAAGSGESTPERSDFKRVKHDNHKTLHPVNLQNTGAASVDNDGLHNLTDISNDAEKLLMSVDDGSAAPSTLSVNMGVASHNVAAPTTVNAATITGSDVSNNVNSATINNPMEEGALPLSPTASSPGTTTPLAKTTKTINNNNNIADLIESKDSIISPEYLSDEIFSAINNNLPHAYFKNLLFRLVANMDRSELSDLGTLIKDNLKRDLITSLPFEISLKIFNYLQFEDIINSLGVSQNWNKIIRKSTSLWKKLLISENFVSPKGFNSLNLKLSQKYPKLSQQDRLRLSFLENIFILKNWYNPKFVPQRTTLRGHMTSVITCLQFEDNYVITGADDKMIRVYDSINKKFLLQLSGHDGGVWALKYAHGGILVSGSTDRTVRVWDIKKGCCTHVFKGHNSTVRCLDIVEYKNIKYIVTGSRDNTLHVWKLPKESSVPDHGEEHDYPLVFHTPEENPYFVGVLRGHMASVRTVSGHGNIVVSGSYDNTLIVWDVAQMKCLYILSGHTDRIYSTIYDHERKRCISASMDTTIRIWDLENIWNNGECSYATNSASPCAKILGAMYTLQGHTALVGLLRLSDKFLVSAAADGSIRGWDANDYSRKFSYHHTNLSAITTFYVSDNILVSGSENQFNIYNLRSGKLVHANILKDADQIWSVNFKGKTLVAAVEKDGQSFLEILDFSKASKINYVSNPVNSSSSSLESISTSLGLTRTTIIP
With B1, the binding entry in assay [2] is recorded as “binds”.

B2: Cdc53-Cullin1 (yCul1) (protein, UniProt Q12018 1-815)
chain: MSETLPRSDDLEATWNFIEPGINQILGNEKNQASTSKRVYKILSPTMYMEVYTAIYNYCVNKSRSSGHFSTDSRTGQSTILVGSEIYEKLKNYLKNYILNFKQSNSETFLQFYVKRWKRFTIGAIFLNHAFDYMNRYWVQKERSDGKRHIFDVNTLCLMTWKEVMFDPSKDVLINELLDQVTLGREGQIIQRSNISTAIKSLVALGIDPQDLKKLNLNVYIQVFEKPFLKKTQEYYTQYTNDYLEKHSVTEYIFEAHEIIKREEKAMTIYWDDHTKKPLSMALNKVLITDHIEKLENEFVVLLDARDIEKITSLYALIRRDFTLIPRMASVFENYVKKTGENEISSLLAMHKHNIMKNENANPKKLALMTAHSLSPKDYIKKLLEVHDIFSKIFNESFPDDIPLAKALDNACGAFININEFALPAGSPKSATSKTSEMLAKYSDILLKKATKPEVASDMSDEDIITIFKYLTDKDAFETHYRRLFAKRLIHGTSTSAEDEENIIQRLQAANSMEYTGKITKMFQDIRLSKILEDDFAVALKNEPDYSKAKYPDLQPFVLAENMWPFSYQEVEFKLPKELVPSHEKLKESYSQKHNGRILKWLWPLCRGELKADIGKPGRMPFNFTVTLFQMAILLLYNDADVLTLENIQEGTSLTIQHIAAAMVPFIKFKLIQQVPPGLDALVKPETQFKLSRPYKALKTNINFASGVKNDILQSLSGGGHDNHGNKLGNKRLTEDERIEKELNTERQIFLEACIVRIMKAKRNLPHTTLVNECIAQSHQRFNAKVSMVKRAIDSLIQKGYLQRGDDGESYAYLA
Consider B2, for which the binding entry in assay [1] and in assay [2] was “binds” in each case.

These data come from paper PMC6770237.
